The list does not hold the whole screen: it is rich in T/C values a quarter to a half above the control, in often repeated tests (any T/C) and in doses without a T/C. Further doses and runs are listed elsewhere. T/C is the treated group as % of the vehicle group. Some doses have a count of surviving animals in place of a T/C: the source holds a T/C of zero for them, seemingly a mark for toxic or unscored doses. Some survivor counts are full or nearly so, which does not show that the dose was tolerated: the source hardly ever lists a survival T/C far under the control, and the zero likely stands for such cases as well. Survivors were counted at the toxicity check, usually on the fifth day, unless a day is given; later deaths do not show. Schedules are NCI's codes, read here as Q, the interval in days (D) or hours (H), X, the number of doses. Some doses were run more than once; their values stand side by side, smallest first. Some schedule codes hold Z or #, which are not explained here. For survival time, the PubChem record calls one and a half times the control and up active, and a quarter to a half above the control has no call in these data; cut-offs in other NCI protocols can differ. Some T/C values carry the count of animals alive at the toxicity check (mostly the fifth day); where none is given, no animal had died by that day.
Test system: L1210 leukemia ip in BDF1 mice, survival T/C
Experiment: NCI In Vivo Anticancer Drug Screen. Data for tumor model L1210 Leukemia (intraperitoneal) in B6D2F1 (BDF1) mice
Conditions: higher T/C = longer survival
[1] = T/C endpoint: median survival time, dose: 0.25 mg/kg/injection, schedule: Q01DX009 (oral), vehicle: saline + alcohol
[2] = T/C endpoint: mean survival time, dose: 200.0 mg/kg/injection, schedule: Q01DX001 (ip), vehicle: Klucel (hydroxypropylcellulose) (HPC)

For CC(C)[C@]12O[C@H]1[C@@H]1O[C@]13[C@]1(O[C@H]1C[C@H]1C4=C(C(=O)OC4)[C@@H](O)C[C@@]13C)[C@@H]2O, the T/C (T/C endpoint: mean survival time, dose: 6.5 micrograms/kg/injection, schedule: Q01DX009 (ip), vehicle: saline) was 134 % of control, the survivor count (T/C endpoint: mean survival time, dose: 12.5 micrograms/kg/injection, schedule: Q01DX009 (ip), vehicle: saline) was 6 of 6 and the survivor count (T/C endpoint: mean survival time, dose: 25.0 micrograms/kg/injection, schedule: Q01DX009 (ip), vehicle: saline) was 6 of 6. The T/C (T/C endpoint: mean survival time, dose: 50.0 micrograms/kg/injection, schedule: Q01DX009 (ip), vehicle: saline, evaluated on day 30) was 129 % of control, the T/C (T/C endpoint: mean survival time, dose: 50.0 micrograms/kg/injection, schedule: Q01DX009 (ip), vehicle: saline, evaluated on day 60) was 128 % of control and the survivor count (T/C endpoint: mean survival time, dose: 50.0 micrograms/kg/injection, schedule: Q01DX009 (ip), vehicle: saline) was 6 of 6. The survivor count (T/C endpoint: mean survival time, dose: 75.0 micrograms/kg/injection, schedule: Q01DX009 (oral), vehicle: saline + alcohol) was 2 of 7, the T/C (T/C endpoint: mean survival time, dose: 100.0 micrograms/kg/injection, schedule: Q01DX009 (ip), vehicle: saline) was 147 % of control and the survivor count (T/C endpoint: mean survival time, dose: 150.0 micrograms/kg/injection, schedule: Q01DX009 (oral), vehicle: saline + alcohol) was 4 of 7. For the same compound, the survivor count (T/C endpoint: mean survival time, dose: 200.0 micrograms/kg/injection, schedule: Q01DX009 (ip), vehicle: saline) was 6 of 6, the survivor count (T/C endpoint: mean survival time, dose: 300.0 micrograms/kg/injection, schedule: Q01DX009 (oral), vehicle: saline + alcohol) was 0 of 7 and the survivor count (T/C endpoint: mean survival time, dose: 400.0 micrograms/kg/injection, schedule: Q01DX009 (ip), vehicle: saline) was 0 of 10 and 4 of 6. The survivor count (T/C endpoint: mean survival time, dose: 600.0 micrograms/kg/injection, schedule: Q01DX009 (oral), vehicle: saline + alcohol) was 0 of 7, the T/C (T/C endpoint: median survival time, dose: 0.06 mg/kg/injection, schedule: Q01DX009 (ip), vehicle: saline + alcohol) was 129 % of control and the T/C (T/C endpoint: median survival time, dose: 0.12 mg/kg/injection, schedule: Q01DX009 (ip), vehicle: saline + alcohol) was 145 % of control. The T/C (T/C endpoint: median survival time, dose: 0.12 mg/kg/injection, schedule: Q01DX009 (ip), vehicle: saline with Tween-80) was 144 % of control, the T/C (T/C endpoint: median survival time, dose: 0.13 mg/kg/injection, schedule: Q01DX009 (ip), vehicle: saline with Tween-80) was 145 % of control and the T/C [1] was 136 % of control. The survivor count [1] was 6 of 10, the survivor count (T/C endpoint: median survival time, dose: 0.5 mg/kg/injection, schedule: Q01DX009 (ip), vehicle: saline + alcohol) was 3 of 10 and the survivor count (T/C endpoint: median survival time, dose: 0.5 mg/kg/injection, schedule: Q01DX009 (ip), vehicle: saline with Tween-80) was 4 of 10 and 5 of 10. For the same compound, the survivor count (T/C endpoint: median survival time, dose: 0.5 mg/kg/injection, schedule: Q01DX009 (oral), vehicle: saline + alcohol) was 0 of 10 and 3 of 10, the survivor count (T/C endpoint: median survival time, dose: 0.5 mg/kg/injection, schedule: Q01DX009 (sc), vehicle: saline + alcohol) was 8 of 10 and the survivor count (T/C endpoint: median survival time, dose: 1.0 mg/kg/injection, schedule: Q01DX001 (ip), vehicle: saline + alcohol) was 0 of 10. The survivor count (T/C endpoint: median survival time, dose: 1.0 mg/kg/injection, schedule: Q01DX009 (ip), vehicle: saline + alcohol) was 0 of 10, the survivor count (T/C endpoint: median survival time, dose: 1.0 mg/kg/injection, schedule: Q01DX009 (ip), vehicle: saline with Tween-80) was 0 of 10 and the survivor count (T/C endpoint: median survival time, dose: 1.0 mg/kg/injection, schedule: Q01DX009 (oral), vehicle: saline + alcohol) was 0 of 10. For the same compound, the survivor count (T/C endpoint: median survival time, dose: 1.0 mg/kg/injection, schedule: Q01DX009 (sc), vehicle: saline + alcohol) was 0 of 10, the survivor count (T/C endpoint: median survival time, dose: 1.0 mg/kg/injection, schedule: Q04DX003 (ip), vehicle: saline + alcohol) was 2 of 10 and the survivor count (T/C endpoint: median survival time, dose: 1.0 mg/kg/injection, schedule: Q08DX002 (ip), vehicle: saline + alcohol) was 0 of 10. For the same compound, the survivor count (T/C endpoint: median survival time, dose: 2.0 mg/kg/injection, schedule: Q01DX001 (ip), vehicle: saline + alcohol) was 0 of 10, the survivor count (T/C endpoint: median survival time, dose: 2.0 mg/kg/injection, schedule: Q01DX009 (ip), vehicle: saline + alcohol) was 0 of 10 and the survivor count (T/C endpoint: median survival time, dose: 2.0 mg/kg/injection, schedule: Q01DX009 (ip), vehicle: saline with Tween-80) was 0 of 10. The survivor count (T/C endpoint: median survival time, dose: 2.0 mg/kg/injection, schedule: Q01DX009 (oral), vehicle: saline + alcohol) was 0 of 10, the survivor count (T/C endpoint: median survival time, dose: 2.0 mg/kg/injection, schedule: Q01DX009 (sc), vehicle: saline + alcohol) was 0 of 10 and the survivor count (T/C endpoint: median survival time, dose: 2.0 mg/kg/injection, schedule: Q08DX002 (ip), vehicle: saline + alcohol) was 0 of 10. For the same compound, the survivor count (T/C endpoint: median survival time, dose: 4.0 mg/kg/injection, schedule: Q01DX001 (ip), vehicle: saline + alcohol) was 0 of 10, the survivor count (T/C endpoint: median survival time, dose: 4.0 mg/kg/injection, schedule: Q01DX009 (oral), vehicle: saline + alcohol) was 0 of 10 and the T/C (T/C endpoint: median survival time, dose: 15.6 micrograms/kg/injection, schedule: Q03HX016 (ip), vehicle: saline + alcohol) was 126 % of control. The T/C (T/C endpoint: median survival time, dose: 15.6 micrograms/kg/injection, schedule: Q03HX024 (ip), vehicle: saline + alcohol) was 129 % of control, the T/C (T/C endpoint: median survival time, dose: 31.2 micrograms/kg/injection, schedule: Q03HX016 (ip), vehicle: saline + alcohol) was 135 % of control and the survivor count (T/C endpoint: median survival time, dose: 31.3 micrograms/kg/injection, schedule: Q03HX024 (oral), vehicle: saline + alcohol) was 3 of 10. The survivor count (T/C endpoint: median survival time, dose: 62.5 micrograms/kg/injection, schedule: Q03HX008 (ip), vehicle: saline + alcohol) was 5 of 10, the T/C (T/C endpoint: median survival time, dose: 62.5 micrograms/kg/injection, schedule: Q03HX016 (ip), vehicle: saline + alcohol) was 137 % of control and the survivor count (T/C endpoint: median survival time, dose: 62.5 micrograms/kg/injection, schedule: Q03HX024 (oral), vehicle: saline + alcohol) was 1 of 10 and 3 of 10. The survivor count (T/C endpoint: median survival time, dose: 125.0 micrograms/kg/injection, schedule: Q03HX008 (ip), vehicle: saline + alcohol) was 0 of 10, the survivor count (T/C endpoint: median survival time, dose: 125.0 micrograms/kg/injection, schedule: Q03HX016 (ip), vehicle: saline + alcohol) was 0 of 10 and the survivor count (T/C endpoint: median survival time, dose: 125.0 micrograms/kg/injection, schedule: Q03HX024 (ip), vehicle: saline + alcohol) was 0 of 10. For the same compound, the survivor count (T/C endpoint: median survival time, dose: 125.0 micrograms/kg/injection, schedule: Q03HX024 (oral), vehicle: saline + alcohol) was 0 of 10, the survivor count (T/C endpoint: median survival time, dose: 125.0 micrograms/kg/injection, schedule: Q03HX024 (sc), vehicle: saline + alcohol) was 0 of 10 and the survivor count (T/C endpoint: median survival time, dose: 250.0 micrograms/kg/injection, schedule: Q03HX008 (ip), vehicle: saline + alcohol) was 0 of 10. The survivor count (T/C endpoint: median survival time, dose: 250.0 micrograms/kg/injection, schedule: Q03HX016 (ip), vehicle: saline + alcohol) was 0 of 10, the survivor count (T/C endpoint: median survival time, dose: 250.0 micrograms/kg/injection, schedule: Q03HX024 (oral), vehicle: saline + alcohol) was 0 of 10 and the survivor count (T/C endpoint: median survival time, dose: 500.0 micrograms/kg/injection, schedule: Q03HX008 (ip), vehicle: saline + alcohol) was 0 of 10.

For Cc1cc(NCCCCCCCNc2cc(C)nc3cc(N)ccc23)c2ccc(N)cc2n1, the T/C (T/C endpoint: median survival time, dose: 3.12 mg/kg/injection, schedule: Q01DX009 (ip), vehicle: water) was 135 % of control.

With CC1(C)Cc2cccc(C(O)(CCN3CCCCC3)c3ccccc3)c2O1 (centres undefined) the survivor count [2] was 1 of 6 and the survivor count (T/C endpoint: mean survival time, dose: 400.0 mg/kg/injection, schedule: Q01DX001 (ip), vehicle: Klucel (hydroxypropylcellulose) (HPC)) was 0 of 6.

With CC1CN=C(c2ccc(NC(=O)c3ccc(C(=O)Nc4ccc(C5=NCC(C)N5)cc4)c(N)c3)cc2)N1 (centres undefined) the survivor count (T/C endpoint: mean survival time, dose: 60.0 mg/kg/injection, schedule: Q01DX Z (ip), vehicle: saline) was 3 of 6 and the survivor count (T/C endpoint: mean survival time, dose: 120.0 mg/kg/injection, schedule: Q01DX Z (ip), vehicle: saline) was 0 of 6.

For O=C(CI)c1ccc[nH]1, the survivor count (T/C endpoint: mean survival time, dose: 400.0 mg/kg/injection, schedule: Q01DX001 (ip), vehicle: saline) was 0 of 4.

With CC(C)(O)C#Cc1ccccc1 the survivor count (T/C endpoint: mean survival time, dose: 400.0 mg/kg/injection, schedule: Q01DX005 (ip), vehicle: Klucel (hydroxypropylcellulose) (HPC)) was 0 of 3.

In the case of CCOP(=O)(/N=C1/C2CCC(C2)C1C)OCC (centres undefined), the survivor count (T/C endpoint: mean survival time, dose: 100.0 mg/kg/injection, schedule: Q04DX003 (ip), vehicle: saline) is reported as 1 of 6, the survivor count (T/C endpoint: mean survival time, dose: 200.0 mg/kg/injection, schedule: Q04DX003 (ip), vehicle: saline) is reported as 0 of 6 and the survivor count (T/C endpoint: mean survival time, dose: 400.0 mg/kg/injection, schedule: Q04DX003 (ip), vehicle: saline) is reported as 0 of 6.

Cc1nc(/N=N/N(C)C)c(C(N)=O)[nH]1 was tested, and the T/C (T/C endpoint: mean survival time, dose: 100.0 mg/kg/injection, schedule: Q01DX009 (ip), vehicle: saline with Tween-80) was 127 % of control [5 of 6 alive], the T/C (T/C endpoint: mean survival time, dose: 200.0 mg/kg/injection, schedule: Q01DX009 (ip), vehicle: saline with Tween-80) was 144 % of control and the T/C (T/C endpoint: mean survival time, dose: 400.0 mg/kg/injection, schedule: Q01DX009 (ip), vehicle: saline with Tween-80) was 147 % of control.

With CCCCCCCCCCCCCCSCCSCCSCCCCCCCCCCCCCC the survivor count (T/C endpoint: mean survival time, dose: 100.0 mg/kg/injection, schedule: Q01DX001 (ip), vehicle: Klucel (hydroxypropylcellulose) (HPC)) was 6 of 6 and the survivor count [2] was 6 of 6.

Reference: PubChem BioAssay AID248 (DTP/NCI, 2004)
